Laboratory results: PubChem BioAssay AID652272 (Drosophila RNAi Screening Center, 2013)

Purpose: 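Finding fly genes that regulate Hedgehog signal transduction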 (primary screen)
Cells: Drosophila clone 8 (Cl8) cells
Reagents: long dsRNA against Drosophila genes
Detection: 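Firefly light from a Hedgehog-responsive ptc promoter reporter and Renilla reference light, both read on a plate reader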
Reading the numbers: firefly Hh reporter signal: higher = more ptc reporter light; Renilla reference signal: higher = more Renilla control light
Hit rule: 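Hit when the z-score averaged over two replicates is under -2 or over +3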
Calls: active = hit: reporter lowered or raised; inactive = not a hit
In all, the deposit lists about 21,000 reagents; shown is a random part of those that have a named target and a result. Of all reagents, 503 (2.4%) are marked active. 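Raw plate light values, not normalised; calls rest on replicate z-scores that were not deposited; hits include reporter decreases as well as increases.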 A number with no mark means an inactive call. A plus sign joins genes that one reagent is predicted to hit. Not stated in the record: the amount of reagent, the time to read-out.

target gene	amplicon	firefly Hh reporter signal, replicate 1	firefly Hh reporter signal, replicate 2	firefly Hh reporter signal, replicate 3	Renilla reference signal, replicate 1	Renilla reference signal, replicate 2
CG9682	DRSC16536	1.15e5	99318		2595	2635
CG14325	DRSC14804	5.60e5	1.40e5		24727	3696
CG6951	DRSC10755	71968	1.36e5		2348	4058
gsb-n	DRSC04021	1.96e5	2.68e5		4213	11831
gsb-n	DRSC04693	76883	78763		1762	5926
ImpE3	DRSC16716	80592	1.02e5		2938	2678
CG34225	DRSC05270	1.02e5	2.42e5		3276	10564
CG10086	DRSC14183	57463	64673		3014	2667
gdrd	DRSC10020	1.15e5			3424	2896
CG17261	DRSC00498	1.57e5	54487		3765	6480
Hexo1	DRSC08663	1.06e5	45104		3840	355
cic	DRSC14276	3.53e5	30576		24604	1164
cic	DRSC15708	3.08e5	23814		21392	916
cic	DRSC16918	4.56e5	76113		30156	2678
cic	DRSC21243	80768	2.42e5		3254	9776
CG13196	DRSC06321	89325	50754		1835	3282
lqf	DRSC11363	1.56e5	68087		5288	2589
CR15280	DRSC01953	1.01e5	68633		2324	5618
eloF	DRSC15162	71223	1.16e5		2400	3170
CG34115	DRSC03840	1.50e5	3.35e5		5611	16089
Lcp65Ae	DRSC11212	52934	38896		5440	2985
CG6409	DRSC10630	1.64e5	7.50e5	1.33e5	6806	41480
RpS28b	DRSC18258	30924 (active)	23521		1467	1114
otu	DRSC18811	76405	1.99e5		2813	8684
Ube4A	DRSC02004	67985	52832		3281	2036
mus301	DRSC10939	55835	58784		7586	2651
CG8993	DRSC08616	56297	55995		2188	3928
MstProx + Mst84Da	DRSC12597	95526	1.14e5		3283	3334
CkIIbeta	DRSC20230	56501	1.70e5		2773	9377
CG4025	DRSC18523	1.34e5	2.50e5		5105	9174
dpr20	DRSC08265	1.12e5	1.04e5		4741	4381
CG4497	DRSC02754	81943	67461		4018	3660
corn	DRSC11021	92278	83450		4013	3461
Cp38	DRSC18453	1.24e5	3.01e5		3605	11050
nAChRalpha5	DRSC01360	1.91e5	3.34e5		5117	16241
nAChRalpha5	DRSC01946	1.37e5	64722		3570	5648
nAChRalpha5	DRSC01947	1.54e5	62664		3959	6114
Ugt37A2	DRSC15861	1.86e5	1.85e5		6763	3388
armi	DRSC08193	1.01e5	68088		3591	5635
Rpt4R	DRSC10791	1954	69632	79753	6730	5884
AgmNAT	DRSC18072	55197	1.90e5		2257	7276
Top1	DRSC20295	82512	1.41e5		2583	5829
Ino80	DRSC14760	6.18e5	93061		27440	1891
Ino80	DRSC15333	6.02e5	66092		23541	1240
Ino80	DRSC15501	5.47e5	92098		25220	1720
CG17855	DRSC02638	1.06e5	46154		3217	5185
Rala	DRSC18703	79169	2.89e5		2315	11072
Pld3	DRSC03167	54016	63891		2659	2204
CG15120	DRSC06542	87574	66797		1779	4326
Gyf	DRSC17202	1.04e5	49332		2653	1957
CG32855	DRSC13131	40305	1.67e5		8730	2950
Nt5c	DRSC06711	90588	54695		3872	2384
Argl + CG9515	DRSC03243	87968	87307		2964	3307
Argl + CG9515	DRSC03245	1.13e5	53962		3120	6711
Nhe2	DRSC03172	81489	54507		2058	4640
Nhe2	DRSC03377	90519	50928		2450	4019
dpy	DRSC00233	4.86e5	1.58e5		24176	6912
dpy	DRSC00234	5.51e5	1.53e5		26569	6665
dpy	DRSC00472	1.08e5	60939		3072	6411
swi2	DRSC06457	1.06e5	43737		3098	2789
Kmn1	DRSC19666	84152	2.08e5		3024	8121
GluRIIC	DRSC00642	1.07e5	58480		4701	2853
CG30480	DRSC06736	83008	44032		2176	3604
CG2211	DRSC08559	80288	40908		2464	3040
ndl	DRSC11374	49894	75271		4055	4997
Cpsf73	DRSC16291	5.56e5	1.27e5		33846	5160
CG14629	DRSC18476	95605	50145		6352	1798
CG7715	DRSC16301	7.68e5	1.27e5		40041	3541
Yip1d1	DRSC02166	1.42e5	73707		3952	6518
Stam	DRSC03444	67845	50605		3130	2416
CG13285	DRSC09960	65357	81136		8288	5674
CG3184	DRSC18289	88192	56806		2386	1355
CG14238	DRSC14732	66096	82040		1511	1869

Laid out differently: results already given.
CkIIbeta [DRSC20230]
- firefly Hh reporter signal, replicate 1: 56501
- firefly Hh reporter signal, replicate 2: 1.70e5
- Renilla reference signal, replicate 1: 2773
- Renilla reference signal, replicate 2: 9377

CG4025 [DRSC18523]
- firefly Hh reporter signal, replicate 1: 1.34e5
- firefly Hh reporter signal, replicate 2: 2.50e5
- Renilla reference signal, replicate 1: 5105
- Renilla reference signal, replicate 2: 9174

dpr20 [DRSC08265]
- firefly Hh reporter signal, replicate 1: 1.12e5
- firefly Hh reporter signal, replicate 2: 1.04e5
- Renilla reference signal, replicate 1: 4741
- Renilla reference signal, replicate 2: 4381
